Laboratory results as given in the supplement of paper PMC5836539.
± gives the standard deviation of the averaged measurements. This data set is noisy: repeats of one test often differ as much as different tests do.

Sequences of proteins named here, by UniProt entry; tags and fusion partners are left off. A change or cut given only in a name is not applied to a line headed by its entry.
UniProt Q9C004: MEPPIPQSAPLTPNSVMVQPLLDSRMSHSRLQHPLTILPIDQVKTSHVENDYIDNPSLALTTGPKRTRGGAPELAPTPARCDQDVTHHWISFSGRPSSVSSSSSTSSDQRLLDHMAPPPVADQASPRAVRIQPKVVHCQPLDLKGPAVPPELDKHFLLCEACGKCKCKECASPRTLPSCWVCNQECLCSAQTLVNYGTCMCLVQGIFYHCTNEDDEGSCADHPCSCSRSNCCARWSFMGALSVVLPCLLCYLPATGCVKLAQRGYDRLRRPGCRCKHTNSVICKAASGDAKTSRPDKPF
UniProt Q15742: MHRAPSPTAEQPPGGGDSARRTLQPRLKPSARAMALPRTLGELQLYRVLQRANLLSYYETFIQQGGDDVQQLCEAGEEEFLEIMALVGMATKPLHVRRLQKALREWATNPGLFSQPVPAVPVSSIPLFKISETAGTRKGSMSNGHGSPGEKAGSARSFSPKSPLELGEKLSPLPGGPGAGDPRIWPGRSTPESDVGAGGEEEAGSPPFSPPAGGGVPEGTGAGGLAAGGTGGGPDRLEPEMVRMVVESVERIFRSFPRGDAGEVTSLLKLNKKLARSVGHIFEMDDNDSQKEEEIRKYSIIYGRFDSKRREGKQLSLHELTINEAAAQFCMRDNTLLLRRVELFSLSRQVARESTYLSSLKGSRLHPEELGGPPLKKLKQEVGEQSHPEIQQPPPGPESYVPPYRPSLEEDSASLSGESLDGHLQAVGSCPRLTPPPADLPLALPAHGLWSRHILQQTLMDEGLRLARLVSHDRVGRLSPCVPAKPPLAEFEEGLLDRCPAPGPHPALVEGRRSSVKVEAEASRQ
UniProt Q05682: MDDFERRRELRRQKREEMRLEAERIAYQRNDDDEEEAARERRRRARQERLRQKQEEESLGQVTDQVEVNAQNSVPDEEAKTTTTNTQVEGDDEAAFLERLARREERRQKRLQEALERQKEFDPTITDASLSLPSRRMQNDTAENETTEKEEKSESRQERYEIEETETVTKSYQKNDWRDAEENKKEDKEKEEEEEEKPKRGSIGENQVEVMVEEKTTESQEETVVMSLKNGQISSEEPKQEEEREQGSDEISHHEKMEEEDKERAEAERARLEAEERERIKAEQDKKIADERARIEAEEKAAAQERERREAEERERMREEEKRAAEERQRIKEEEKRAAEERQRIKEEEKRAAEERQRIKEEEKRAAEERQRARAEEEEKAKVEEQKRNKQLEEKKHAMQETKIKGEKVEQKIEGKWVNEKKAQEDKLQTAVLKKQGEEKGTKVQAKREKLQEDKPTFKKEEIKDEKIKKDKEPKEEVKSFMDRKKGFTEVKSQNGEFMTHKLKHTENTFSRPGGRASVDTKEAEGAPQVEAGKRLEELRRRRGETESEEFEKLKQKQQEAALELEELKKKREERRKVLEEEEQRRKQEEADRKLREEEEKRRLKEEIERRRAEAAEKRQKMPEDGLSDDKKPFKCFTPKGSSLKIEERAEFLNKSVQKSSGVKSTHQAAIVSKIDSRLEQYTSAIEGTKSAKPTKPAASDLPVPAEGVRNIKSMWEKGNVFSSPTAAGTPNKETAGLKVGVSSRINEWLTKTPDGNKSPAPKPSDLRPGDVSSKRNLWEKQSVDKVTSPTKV
UniProt Q9UQ35: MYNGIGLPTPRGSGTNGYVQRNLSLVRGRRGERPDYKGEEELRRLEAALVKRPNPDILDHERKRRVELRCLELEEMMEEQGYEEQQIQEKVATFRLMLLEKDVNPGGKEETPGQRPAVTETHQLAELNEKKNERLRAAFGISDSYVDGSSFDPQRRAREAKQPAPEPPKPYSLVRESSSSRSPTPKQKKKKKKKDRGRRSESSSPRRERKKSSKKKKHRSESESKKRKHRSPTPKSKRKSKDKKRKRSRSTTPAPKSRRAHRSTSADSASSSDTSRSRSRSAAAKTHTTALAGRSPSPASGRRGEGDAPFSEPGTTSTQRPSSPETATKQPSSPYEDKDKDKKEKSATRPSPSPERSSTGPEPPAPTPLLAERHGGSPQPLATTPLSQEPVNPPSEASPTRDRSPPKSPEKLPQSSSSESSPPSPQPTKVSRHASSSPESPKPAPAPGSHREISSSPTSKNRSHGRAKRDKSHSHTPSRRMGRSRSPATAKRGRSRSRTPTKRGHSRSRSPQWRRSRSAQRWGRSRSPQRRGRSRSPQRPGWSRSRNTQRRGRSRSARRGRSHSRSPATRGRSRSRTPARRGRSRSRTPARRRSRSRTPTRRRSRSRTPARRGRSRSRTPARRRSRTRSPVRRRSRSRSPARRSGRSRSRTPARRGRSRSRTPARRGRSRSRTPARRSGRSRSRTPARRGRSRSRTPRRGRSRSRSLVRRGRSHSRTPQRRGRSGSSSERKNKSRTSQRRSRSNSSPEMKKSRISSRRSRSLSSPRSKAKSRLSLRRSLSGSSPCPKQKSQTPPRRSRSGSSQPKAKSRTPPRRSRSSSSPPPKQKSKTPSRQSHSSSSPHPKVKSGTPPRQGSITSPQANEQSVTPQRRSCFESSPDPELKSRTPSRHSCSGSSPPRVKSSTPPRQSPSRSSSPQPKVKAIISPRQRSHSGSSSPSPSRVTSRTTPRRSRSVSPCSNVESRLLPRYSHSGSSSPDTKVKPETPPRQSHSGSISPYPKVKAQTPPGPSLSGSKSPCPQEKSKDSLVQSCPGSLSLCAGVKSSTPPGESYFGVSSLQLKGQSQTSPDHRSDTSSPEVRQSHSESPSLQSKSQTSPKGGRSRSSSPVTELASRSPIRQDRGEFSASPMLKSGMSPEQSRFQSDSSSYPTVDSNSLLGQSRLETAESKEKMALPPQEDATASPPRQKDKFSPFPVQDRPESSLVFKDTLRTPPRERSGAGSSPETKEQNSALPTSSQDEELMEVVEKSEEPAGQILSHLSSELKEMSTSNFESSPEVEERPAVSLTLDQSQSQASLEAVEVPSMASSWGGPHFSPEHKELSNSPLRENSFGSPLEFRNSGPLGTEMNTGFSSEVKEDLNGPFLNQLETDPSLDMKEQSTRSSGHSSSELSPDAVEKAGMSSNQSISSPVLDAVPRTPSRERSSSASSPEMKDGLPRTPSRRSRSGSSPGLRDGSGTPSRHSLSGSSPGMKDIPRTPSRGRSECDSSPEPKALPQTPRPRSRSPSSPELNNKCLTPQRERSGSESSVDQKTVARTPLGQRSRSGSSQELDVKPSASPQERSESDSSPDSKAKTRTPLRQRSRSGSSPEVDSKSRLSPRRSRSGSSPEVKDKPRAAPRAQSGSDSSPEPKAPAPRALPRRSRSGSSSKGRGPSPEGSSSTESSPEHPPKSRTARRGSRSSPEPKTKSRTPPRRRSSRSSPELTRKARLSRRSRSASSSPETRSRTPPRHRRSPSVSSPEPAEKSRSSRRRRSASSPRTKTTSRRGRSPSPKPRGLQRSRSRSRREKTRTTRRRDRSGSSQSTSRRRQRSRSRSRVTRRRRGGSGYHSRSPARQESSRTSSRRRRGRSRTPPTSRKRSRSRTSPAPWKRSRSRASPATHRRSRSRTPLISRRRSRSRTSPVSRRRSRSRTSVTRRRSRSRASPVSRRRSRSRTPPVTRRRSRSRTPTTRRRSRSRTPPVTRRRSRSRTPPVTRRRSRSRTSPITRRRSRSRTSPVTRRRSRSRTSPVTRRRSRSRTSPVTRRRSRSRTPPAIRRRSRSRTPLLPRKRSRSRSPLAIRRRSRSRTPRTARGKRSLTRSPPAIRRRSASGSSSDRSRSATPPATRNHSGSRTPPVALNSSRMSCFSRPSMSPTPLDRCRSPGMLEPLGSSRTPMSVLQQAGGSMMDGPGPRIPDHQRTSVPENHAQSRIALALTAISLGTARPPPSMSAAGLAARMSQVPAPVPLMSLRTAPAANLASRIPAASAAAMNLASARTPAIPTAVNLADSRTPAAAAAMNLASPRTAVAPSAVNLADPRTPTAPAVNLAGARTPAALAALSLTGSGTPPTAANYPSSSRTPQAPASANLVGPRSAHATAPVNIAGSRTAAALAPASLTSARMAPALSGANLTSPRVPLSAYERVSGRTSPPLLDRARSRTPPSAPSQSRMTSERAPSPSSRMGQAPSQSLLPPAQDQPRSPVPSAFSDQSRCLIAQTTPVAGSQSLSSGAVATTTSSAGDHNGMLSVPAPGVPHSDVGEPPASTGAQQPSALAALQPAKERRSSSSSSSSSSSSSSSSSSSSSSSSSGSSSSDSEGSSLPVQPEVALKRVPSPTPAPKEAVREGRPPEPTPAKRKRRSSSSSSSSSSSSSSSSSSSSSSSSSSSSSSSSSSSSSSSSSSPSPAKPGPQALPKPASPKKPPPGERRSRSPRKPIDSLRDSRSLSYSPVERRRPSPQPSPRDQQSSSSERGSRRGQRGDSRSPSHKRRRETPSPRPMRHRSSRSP
UniProt Q9UBC2: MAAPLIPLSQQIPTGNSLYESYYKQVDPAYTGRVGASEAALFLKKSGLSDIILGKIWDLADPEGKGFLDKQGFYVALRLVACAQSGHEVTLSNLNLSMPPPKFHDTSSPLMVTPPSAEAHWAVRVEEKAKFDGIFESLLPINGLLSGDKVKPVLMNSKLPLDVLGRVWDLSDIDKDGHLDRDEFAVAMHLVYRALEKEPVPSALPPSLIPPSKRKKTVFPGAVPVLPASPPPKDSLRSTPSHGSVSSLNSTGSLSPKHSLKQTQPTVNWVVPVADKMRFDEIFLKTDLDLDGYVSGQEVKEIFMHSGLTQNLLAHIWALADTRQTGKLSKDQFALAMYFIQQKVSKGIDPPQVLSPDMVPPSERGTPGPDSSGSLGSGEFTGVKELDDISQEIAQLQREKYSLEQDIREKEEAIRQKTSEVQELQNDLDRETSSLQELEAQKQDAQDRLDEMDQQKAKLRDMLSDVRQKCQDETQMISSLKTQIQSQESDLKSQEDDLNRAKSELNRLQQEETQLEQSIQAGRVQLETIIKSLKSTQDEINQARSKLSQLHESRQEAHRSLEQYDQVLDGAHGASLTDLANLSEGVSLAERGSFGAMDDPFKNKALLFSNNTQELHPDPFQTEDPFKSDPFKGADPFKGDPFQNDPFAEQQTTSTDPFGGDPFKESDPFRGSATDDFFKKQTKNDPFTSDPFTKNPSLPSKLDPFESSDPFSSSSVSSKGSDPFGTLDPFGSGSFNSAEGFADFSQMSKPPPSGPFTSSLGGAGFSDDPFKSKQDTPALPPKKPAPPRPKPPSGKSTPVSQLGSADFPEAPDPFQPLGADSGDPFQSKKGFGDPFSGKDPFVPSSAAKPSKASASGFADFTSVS
UniProt Q3YEC7: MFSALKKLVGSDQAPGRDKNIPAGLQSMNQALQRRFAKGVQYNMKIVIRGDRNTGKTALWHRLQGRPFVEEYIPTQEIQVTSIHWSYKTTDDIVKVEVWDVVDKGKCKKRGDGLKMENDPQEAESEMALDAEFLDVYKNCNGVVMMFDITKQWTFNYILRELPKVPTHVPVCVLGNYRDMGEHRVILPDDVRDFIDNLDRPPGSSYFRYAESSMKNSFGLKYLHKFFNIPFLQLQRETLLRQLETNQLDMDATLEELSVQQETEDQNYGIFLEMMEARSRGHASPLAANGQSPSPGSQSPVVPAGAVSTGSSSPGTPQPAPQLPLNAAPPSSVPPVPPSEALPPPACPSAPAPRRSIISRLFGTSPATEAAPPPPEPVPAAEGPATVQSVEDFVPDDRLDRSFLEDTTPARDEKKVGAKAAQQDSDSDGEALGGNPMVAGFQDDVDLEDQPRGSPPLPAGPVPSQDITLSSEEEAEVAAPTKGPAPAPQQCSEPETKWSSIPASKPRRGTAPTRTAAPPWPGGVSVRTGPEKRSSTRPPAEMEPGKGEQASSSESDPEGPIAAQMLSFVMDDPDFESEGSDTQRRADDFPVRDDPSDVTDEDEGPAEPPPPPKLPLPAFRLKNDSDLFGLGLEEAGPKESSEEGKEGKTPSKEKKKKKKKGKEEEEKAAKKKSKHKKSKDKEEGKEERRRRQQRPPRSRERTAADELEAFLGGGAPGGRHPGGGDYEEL
UniProt P62995: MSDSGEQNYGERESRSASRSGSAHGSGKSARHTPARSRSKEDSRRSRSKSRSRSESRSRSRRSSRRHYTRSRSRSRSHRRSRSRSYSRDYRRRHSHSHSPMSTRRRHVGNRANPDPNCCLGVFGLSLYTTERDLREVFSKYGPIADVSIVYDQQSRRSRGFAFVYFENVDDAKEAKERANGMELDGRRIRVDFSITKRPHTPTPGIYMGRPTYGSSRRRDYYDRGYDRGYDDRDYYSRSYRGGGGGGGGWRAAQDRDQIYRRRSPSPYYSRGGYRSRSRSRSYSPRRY
UniProt Q9HAJ7: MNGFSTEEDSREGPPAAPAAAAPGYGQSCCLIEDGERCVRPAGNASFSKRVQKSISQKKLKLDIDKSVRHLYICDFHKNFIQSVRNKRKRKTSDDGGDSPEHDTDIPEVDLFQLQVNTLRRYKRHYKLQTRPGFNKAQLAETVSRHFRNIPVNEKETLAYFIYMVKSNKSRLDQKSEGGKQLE

Compound: CC[C@@H](C)Nc1cc(C(=O)N[C@H]2C[C@H]3CC[C@@H](C2)N3c2ccc(C(=O)C3CC3)cn2)c(C)cc1C(N)=O [XL888]
Experiment: phosphopeptide melting temperature shift (XL888 minus DMSO); higher = stabilised by drug treatment
Settings: 100 µM; treatment time 2 h; layout: intact cells; SK-Mel 28
Description: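 Phospho-TPP in intact SK-Mel 28 cells treated with 100 uM XL888 or DMSO for 2 h, heated at 10 temperatures (37-67 C) for 3 min, soluble fraction TMT10plex-labelled and TiO2 phospho-enriched. Melting curves were fitted per phosphopeptide; the value is the melting point difference (drug minus vehicle) in each of two biological replicates.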

Target	phosphopeptide melting temperature shift
RBM12B phosphosite_278 (phosphosite position: 278) (UniProt Q8IXT5)	1.65 ± 0.53 °C
SH3BP1 phosphosite_544 (phosphosite position: 544) (UniProt Q9Y3L3)	4.94 °C
UniProt Q9Y5T5-4_phosphosite_105 (phosphosite position: 105)	0.568 ± 1.1 °C
SPRY4 phosphosite_125 (phosphosite position: 125) (UniProt Q9C004)	4.46 °C
UniProt Q14161-5_phosphosite_394 (phosphosite position: 394)	5.69 °C
HDAC1 phosphosite_421 (phosphosite position: 421) (UniProt Q13547)	1.52 ± 0.47 °C
XPO1 phosphosite_391 (phosphosite position: 391) (UniProt O14980)	1.61 °C
UniProt Q66K74-2_phosphosite_715 (phosphosite position: 715)	-0.762 ± 0.88 °C
RPS3A phosphosite_236 (phosphosite position: 236) (UniProt P61247)	-1.02 ± 0.98 °C
NMT1 phosphosite_69 (phosphosite position: 69) (UniProt P30419)	0.824 ± 0.58 °C
TNKS1BP1 phosphosite_353 (phosphosite position: 353) (UniProt Q9C0C2)	0.485 ± 0.26 °C
PPID phosphosite_198 (phosphosite position: 198) (UniProt Q08752)	2.11 °C
ATG2B phosphosite_1579 (phosphosite position: 1579) (UniProt Q96BY7)	4.43 °C
NAB2 phosphosite_171 (phosphosite position: 171) (UniProt Q15742)	4.24 °C
UniProt Q14C86-3_phosphosite_746 (phosphosite position: 746)	1.84 °C
UniProt Q9Y6Q9-4_phosphosite_214 (phosphosite position: 214)	-2.39 °C
STAT1 phosphosite_532 (phosphosite position: 532) (UniProt P42224)	1.67 ± 1.1 °C
LARP1 phosphosite_824 (phosphosite position: 824) (UniProt Q6PKG0)	0.186 °C
CALD1 phosphosite_202 (phosphosite position: 202) (UniProt Q05682)	-0.359 °C
SRRM1 phosphosite_781 (phosphosite position: 781) (UniProt Q8IYB3)	1.6 °C
UniProt Q96S53-3_phosphosite_431 (phosphosite position: 431)	0.699 ± 0.29 °C
UniProt Q9Y5S2_phosphosite_1690 (phosphosite position: 1690)	1.26 ± 2.3 °C
SRRM2 phosphosite_1672 (phosphosite position: 1672) (UniProt Q9UQ35)	4.94 °C

Target	phosphopeptide melting temperature shift
MTOR phosphosite_1261 (phosphosite position: 1261) (UniProt P42345)	-1.75 ± 1.2 °C
SRRM2 phosphosite_1179 (phosphosite position: 1179) (UniProt Q9UQ35)	5.85 ± 0.77 °C
EPS15L1 phosphosite_255 (phosphosite position: 255) (UniProt Q9UBC2)	0.158 ± 2.4 °C
UniProt Q3YEC7_phosphosite_596 (phosphosite position: 596)	0.21 ± 0.99 °C
JPH1 phosphosite_475 (phosphosite position: 475) (UniProt Q9HDC5)	0.463 ± 1.4 °C
DIDO1 phosphosite_898 (phosphosite position: 898) (UniProt Q9BTC0)	2.74 °C
UniProt Q9Y4F5-3_phosphosite_1065 (phosphosite position: 1065)	1.72 °C
UniProt Q86YS7_phosphosite_284 (phosphosite position: 284)	0.886 ± 0.69 °C
UniProt Q9BW85_phosphosite_211 (phosphosite position: 211)	-0.83 ± 2.1 °C
UniProt Q9UMZ2-4_phosphosite_777 (phosphosite position: 777)	0.156 °C
NEK9 phosphosite_869 (phosphosite position: 869) (UniProt Q8TD19)	-3.15 °C
SRRM2 phosphosite_1177 (phosphosite position: 1177) (UniProt Q9UQ35)	5.76 °C
UniProt Q9H0D6-2_phosphosite_425 (phosphosite position: 425)	1.8 °C
UniProt Q0JRZ9-3_phosphosite_463 (phosphosite position: 463)	3.05 °C
SQSTM1 phosphosite_339 (phosphosite position: 339) (UniProt Q13501)	0.457 °C
UniProt Q9H6U6-7_phosphosite_555 (phosphosite position: 555)	-1.63 °C
SNX30 phosphosite_40 (phosphosite position: 40) (UniProt Q5VWJ9)	1.27 °C
GAB1 phosphosite_551 (phosphosite position: 551) (UniProt Q13480)	0.165 °C
SRRM2 phosphosite_440 (phosphosite position: 440) (UniProt Q9UQ35)	2.45 °C
UniProt P29590-2_phosphosite_505 (phosphosite position: 505)	1.54 °C
QRICH1 phosphosite_345 (phosphosite position: 345) (UniProt Q2TAL8)	1 °C
UniProt Q9H6T3-2_phosphosite_119 (phosphosite position: 119)	4.57 ± 3.4 °C
PWP1 phosphosite_485 (phosphosite position: 485) (UniProt Q13610)	2.82 °C

Target	phosphopeptide melting temperature shift
UniProt Q16666-3_phosphosite_668 (phosphosite position: 668)	0.212 ± 0.19 °C
UniProt Q9UPN9-2_phosphosite_1085 (phosphosite position: 1085)	-1.03 ± 1.2 °C
UniProt Q96D71-3_phosphosite_708 (phosphosite position: 708)	0.93 ± 0.7 °C
UniProt Q9BZ23-3_phosphosite_66 (phosphosite position: 66)	0.75 °C
SRGAP2 phosphosite_994 (phosphosite position: 994) (UniProt O75044)	-1.4 °C
UniProt Q9NR30-2_phosphosite_21 (phosphosite position: 21)	0.958 ± 0.23 °C
UniProt Q9NVU7-2_phosphosite_488 (phosphosite position: 488)	0.717 ± 1.8 °C
UniProt P56524-2_phosphosite_97 (phosphosite position: 97)	0.814 °C
UniProt P62995_phosphosite_264 (phosphosite position: 264)	-0.174 ± 1.5 °C
SAP30L phosphosite_99 (phosphosite position: 99) (UniProt Q9HAJ7)	1.37 °C
UniProt Q71RC2-5_phosphosite_651 (phosphosite position: 651)	-2.46 °C
PRPF4B phosphosite_431 (phosphosite position: 431) (UniProt Q13523)	-0.0353 °C
SRRM2 phosphosite_988 (phosphosite position: 988) (UniProt Q9UQ35)	1.57 °C
UniProt Q6XQN6-3_phosphosite_524 (phosphosite position: 524)	-0.795 °C
TBC1D10B phosphosite_687 (phosphosite position: 687) (UniProt Q4KMP7)	3.1 °C
UniProt O94804_phosphosite_438 (phosphosite position: 438)	2 ± 2 °C
RABEP1 phosphosite_377 (phosphosite position: 377) (UniProt Q15276)	3.25 °C
ACTN4 phosphosite_159 (phosphosite position: 159) (UniProt O43707)	-0.669 ± 0.66 °C
UniProt Q86UU1-3_phosphosite_583 (phosphosite position: 583)	-0.328 ± 0.17 °C
UniProt Q9BVJ6-3_phosphosite_353 (phosphosite position: 353)	-4.32 °C
UniProt P52594-2_phosphosite_167 (phosphosite position: 167)	-1.49 °C

Rewritten as comma-separated lines: part of the list above.
Target,phosphopeptide melting temperature shift
UniProt O94804_phosphosite_438 (phosphosite position: 438),2 ± 2 °C
RABEP1 phosphosite_377 (phosphosite position: 377) (UniProt Q15276),3.25 °C
ACTN4 phosphosite_159 (phosphosite position: 159) (UniProt O43707),-0.669 ± 0.66 °C
UniProt Q86UU1-3_phosphosite_583 (phosphosite position: 583),-0.328 ± 0.17 °C
